These results are taken from PubChem BioAssay AID1487 (National Center for Advancing Translational Sciences (NCATS), 2009).

The list shows a part of the results. Further columns of the screen follow, without active or inactive calls. Compounds called inactive in the main read-out are mostly missing here. Potencies come from curve fits of mixed quality, noted in brackets.

The test in a line: qHTS Assay for Modulators of Lamin A Splicing. As to conditions: HeLa LMNA splicing GFP/RFP minigene ratio, 48 h. An outline of the steps:
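S3 HeLa cells stably expressing lamin A-EGFP splicing minigene plus DsRed2, 600 cells/well, 48 h compound exposure at 37C. Laser-scanning cytometry; analysed as GFP (500-530 nm)/RFP (575-640 nm) total intensity ratio; 0.5% DMSO vehicle.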
(In general: qHTS replaces the single test concentration by a dilution series.)

The mark [1] stands for this setting: measured here: RFP viability control channel.
Where [2] appears, read: measured here: GFP splicing reporter channel.

On to `COc1cc2c(cc1OC)CN(CC(=O)NC(=O)NCc1ccccc1)CC2`, for which the AC50 under setting [1] was 0.02 µM [rising, full curve, poor fit].

With `CCOC(=O)c1ccc(NC(=O)CSc2nc3ncc(Br)c(C)c3[nH]2)cc1`, the concentration at half-maximal activity (AC50) under setting [1] was 0.141 µM [falling, full curve]. As for `Cc1ccc(S(=O)(=O)N2CN(Cc3ccco3)c3nc4ccccc4nc32)cc1`, the AC50 is 11.2 µM [rising, partial curve, poor fit] under setting [2] and 14.1 µM [rising, partial curve] under setting [1]. `CCN(C(=O)c1ccc2c(c1)N(Cc1cccc(Cl)c1)C(=O)c1ccccc1S2=O)c1ccccc1` (centres undefined): the AC50 under setting [2] was 31.6 µM [rising, single point]. As for `COc1ccc(-c2noc(CCCOc3ccccc3)n2)cc1OC`, the AC50 under setting [1] is 3.16 µM [rising, partial curve]. `Cc1c(NC(=O)COC(=O)C(c2ccc(Cl)cc2)C(C)C)c(=O)n(-c2ccccc2)n1C` (centres undefined): the half-maximal activity concentration (AC50) under setting [2] was 10 µM [rising, partial curve] and the AC50 under setting [1] is 12.6 µM [rising, partial curve]. With `COc1cccc(CNC(=O)CCl)c1`, under setting [2], the half-maximal activity concentration (AC50) was 20 µM [falling, partial curve, poor fit]. `C/C=C/c1ccc(OCCCCOc2ccc(OC)cc2)c(OC)c1`: the AC50 under setting [1] was 35.5 µM [rising, single point]. For the molecule `Cc1ccc(C)c(CSc2nc3c([nH]c4ccccc43)c(=O)n2C)c1`, the AC50 runs as follows: under setting [2], 1 µM [falling, full curve, poor fit]; under setting [1], 0.0398 µM [falling, full curve, poor fit]. With `COc1ccc(/C=N/NC(=O)CN(CCc2ccccc2)S(=O)(=O)c2ccc(NC(C)=O)cc2)cc1OC`, the AC50 under setting [1] is 17.8 µM [rising, single point]. On to `O=C(CSCc1ccc(Cl)cc1)N/N=C/c1ccc(Cl)cc1Cl`, for which, under setting [1], the AC50 is 17.8 µM [rising, single point]. On to `COc1ccc(-c2cc(C(F)(F)F)n3ncc(C(=O)N4CCc5ccccc5C4)c3n2)cc1`, for which the AC50 is, setting by setting: under setting [2], 20 µM [rising, single point]; under setting [1], 35.5 µM [rising, single point]. Take `CC(=O)C1=C(C)NC(SCC(=O)c2ccc(Cl)cc2)=C(C#N)C1c1ccco1` (centres undefined): the AC50 was 12.6 µM [rising, partial curve] under setting [2] and 25.1 µM [rising, single point] under setting [1]. For the molecule `O=[N+]([O-])c1cccc2ccc(/C=C/c3ccc(Cl)cc3)nc12`, the AC50 reads like this: under setting [2], 11.2 µM [rising, partial curve]; under setting [1], 12.6 µM [rising, partial curve, poor fit]. Consider `Cc1nc2ccc(S(=O)(=O)Nc3ccccc3C)cc2s1`, for which the half-maximal activity concentration (AC50) under setting [1] is 12.6 µM [rising, partial curve]. As for `CCOC(=O)N1CCC(Nc2c(N3CCN(c4cccc(C(F)(F)F)c4)CC3)c(=O)c2=O)CC1`, the AC50 under setting [2] was 17.8 µM [rising, partial curve, poor fit] and the AC50 under setting [1] is 35.5 µM [rising, single point]. As for `COc1cccc(/C=C/C(=O)c2ccc(NS(=O)(=O)c3ccc(C)cc3)cc2)c1`, the AC50 was 15.8 µM [falling, single point] under setting [2] and 31.6 µM [falling, single point] under setting [1].

On to `Cc1ccc(S(=O)(=O)N2c3ccccc3OCC2C(C)(C)C)cc1` (centres undefined), for which the AC50 under setting [1] is 31.6 µM [rising, single point]. For `Cc1ccsc1C(=O)NNC(=O)C1C2C=CC(C2)C1C(=O)O` (centres undefined), the AC50 is, setting by setting: under setting [2], 0.00501 µM [falling, full curve, poor fit]; under setting [1], 0.00501 µM [falling, full curve, poor fit]. As for `CC1CCC(NC(=O)CN2CCCN(Cc3ccc(F)cc3Cl)C2=O)CC1` (centres undefined), the AC50 runs as follows: under setting [2], 4.47 µM [rising, partial curve]; under setting [1], 11.2 µM [rising, partial curve]. Consider `CCOc1ccc(-n2c(=O)c3sccc3n(Cc3cccc([N+](=O)[O-])c3)c2=O)cc1`, for which the AC50 under setting [1] was 0.01 µM [rising, full curve, poor fit]. Still for that read-out and setting: in the case of `COC(=O)c1cc([N+](=O)[O-])ccc1N1CCN(Cc2ccccc2)CC1` it was 0.708 µM [rising, full curve, poor fit]; in that of `O=C(NNC1=C(C(=O)C(F)(F)F)CCC1)c1ccc(Br)cc1`, 35.5 µM [rising, single point].

As to `O=C(Nc1nnc(C2CC2)s1)C1Cc2ccccc2CN1S(=O)(=O)c1cccs1` (centres undefined), the half-maximal activity concentration (AC50) under setting [2] was 12.6 µM [rising, single point]. Regarding `c1ccc(CSc2nnc(NC3=NCCCCC3)s2)cc1`, the AC50 reads like this: under setting [2], 14.1 µM [rising, single point]; under setting [1], 22.4 µM [rising, partial curve].

As to `O=C(Nc1ccccc1)C1=C(O)CC(c2ccc(Cl)cc2)N2CCN=C12` (centres undefined), the AC50 under setting [2] is 35.5 µM [rising, single point]. Still for that read-out and setting: the value for `CCCCc1nn2c(=O)cc(COC(=O)c3cccc(NC(=O)COc4ccccc4)c3)nc2s1` was 0.0282 µM [rising, full curve, poor fit].

For the molecule `Cc1cccc(/C(N)=N/OC(=O)c2ccccc2Cl)c1`, the AC50 is 6.31 µM [rising, single point] under setting [2] and 3.55 µM [rising, single point] under setting [1]. Regarding `O=C(NC1CCCCCC1)C1CCN(C(=O)N2CCOc3ccc(Cl)cc32)CC1`, the AC50 is 22.4 µM [rising, partial curve, poor fit] under setting [2] and 14.1 µM [rising, partial curve] under setting [1]. `CN1/C(=C\C(=O)c2cccc(S(=O)(=O)N3CCCCC3)c2)C(C)(C)c2ccccc21`: the AC50 is, setting by setting: under setting [2], 10 µM [rising, partial curve, poor fit]; under setting [1], 10 µM [rising, partial curve]. Take `Cc1cc(Br)c(NC(=O)COC(=O)CSc2nnc(-c3ccc(Cl)cc3)o2)c(Br)c1`: the AC50 under setting [2] is 12.6 µM [rising, partial curve, poor fit]. Take `COc1ccc(N(CC(=O)Nc2cccc(C)c2C)S(=O)(=O)c2c(C)n[nH]c2C)cc1`: the AC50 under setting [1] was 1.78 µM [falling, partial curve]. As for `CCC(C)CCCCC(=O)NC(CCN)C(=O)NC(C(=O)NC(CCN)C(=O)NC1CCNC(=O)C(C(C)O)NC(=O)C(CCN)NC(=O)C(CCN)NC(=O)C(CC(C)C)NC(=O)C(Cc2ccccc2)NC(=O)C(CCN)NC1=O)C(C)O` (centres undefined), the AC50 is, setting by setting: under setting [2], 0.0126 µM [falling, full curve, poor fit]; under setting [1], 0.000794 µM [rising, full curve, poor fit].

Regarding `CCOCCCNC(=O)c1ccc2c(c1)NC(=O)C(CS(=O)(=O)Cc1ccc(F)cc1Cl)N2` (centres undefined), the AC50 was 1.26 µM [falling, full curve, poor fit] under setting [2] and 0.355 µM [falling, full curve, poor fit] under setting [1]. In the case of `Cc1cc2[nH]c(=O)c(=O)[nH]c2cc1S(=O)(=O)NCc1ccc(F)cc1`, under setting [1], the AC50 is 35.5 µM [falling, single point].

For `CC(OC(=O)C1CCCCC1)c1nc2ccccc2[nH]1` (centres undefined), the concentration at half-maximal activity (AC50) under setting [2] was 11.2 µM [rising, single point] and the AC50 under setting [1] was 12.6 µM [rising, partial curve]. Consider `COc1cccc(-c2nc(NCCc3c[nH]c4ccc(OC)cc34)c3ccccc3n2)c1`, for which the AC50 is 22.4 µM [falling, single point] under setting [2] and 22.4 µM [falling, single point] under setting [1]. Regarding `O=C(Nc1ccc(Cl)cc1Cl)c1cc(S(=O)(=O)N2CCC3(CC2)OCCO3)ccc1F`, under setting [1], the AC50 is 14.1 µM [rising, single point]. On to `O=C(Cc1ccccc1F)Nc1ccccc1-c1ccccc1`, for which the AC50 under setting [1] is 39.8 µM [falling, partial curve, poor fit]. In the case of `CN(C)S(=O)(=O)c1ccc(NC(=O)COC(=O)CC2CC3CCC2C3)cc1` (centres undefined), under setting [2], the AC50 is 0.00447 µM [falling, full curve, poor fit]. Turning to `CN(C)C=Nc1ncc2c([nH]c3ccccc32)c1C#N`, the AC50 by setting is: under setting [2], 6.31 µM [rising, partial curve, poor fit]; under setting [1], 3.55 µM [rising, partial curve, poor fit]. In the case of `COc1ccc(-c2nnc(SCc3ncc(-c4ccccc4)o3)o2)cc1`, the AC50 is 35.5 µM [rising, single point] under setting [2] and 35.5 µM [rising, single point] under setting [1]. As for `CCCOC(=O)Oc1ccc2c(=O)c(Oc3cc(C)cc(C)c3)coc2c1`, the AC50 under setting [1] is 10 µM [rising, single point].

As to `O=C1C2CC=CCC2C(=O)N1c1ccc(NCCc2ccc(O)cc2)c([N+](=O)[O-])c1` (centres undefined), the AC50 runs as follows: under setting [2], 5.62 µM [rising, partial curve, poor fit]; under setting [1], 11.2 µM [rising, partial curve]. As to `Cc1ccc(-c2csc3ncnc(Oc4ccc5c(C)cc(=O)oc5c4)c23)cc1`, the concentration at half-maximal activity (AC50) runs as follows: under setting [2], 7.94 µM [rising, partial curve, poor fit]; under setting [1], 7.94 µM [rising, partial curve]. Regarding `O=C(CN1C(=O)c2ccccc2C1=O)NCCc1c[nH]c2ccc(Cl)cc12`, the AC50 under setting [1] was 2.51 µM [falling, partial curve, poor fit]. In the case of `Cn1nc(C(F)(F)F)c2cc(NC(=O)OCc3ccc(C(C)(C)C)cc3)sc21`, the AC50 was 15.8 µM [rising, single point] under setting [2] and 20 µM [rising, single point] under setting [1]. With `CCOC(=O)c1cc(CC)sc1NC(=O)Cc1ccsc1`, the AC50 is, setting by setting: under setting [2], 22.4 µM [rising, single point]; under setting [1], 15.8 µM [rising, single point].

Consider `CCOc1cc(-c2nnc(SCC(=O)NCc3ccccc3)nc2-c2ccc(OC)c(OCC)c2)ccc1OC`, for which the AC50 under setting [2] is 0.158 µM [falling, full curve, poor fit]. Consider `COc1ccc(C(=O)C(Cc2cc(C(C)=O)ccc2OC)N2CCCC2)cc1` (centres undefined), for which, under setting [1], the AC50 was 11.2 µM [rising, partial curve, poor fit].

As a reminder, the AC50 is the midpoint of the concentration-response curve, whichever way the signal moves.
